The target in this experiment is neurotensin receptor subtype 1 (NTS1R) (UniProt P30989). The experiment can be described thus: split reporter; enzyme complementation (DiscoveRx PathHunter): HEK 293 cells stably expressing EA-β-arrestin-2, transfected with a ProLink-tagged receptor with or without untagged NTS1R (cDNA 1:3); 5 h with agonist (quinpirole, NT(8-13), bivalent ligands), chemiluminescence.

No constants are given. Whether binding was seen depends on the method and setting. In cells and extracts the contact can be indirect. Some results given as binding are weak or reduced against the parent protein; the word gives no strength.

Regarding “EA-tagged β-arrestin-2 fusion protein (from UniProt P32121 1-409)”, the binding entry is recorded as “binds”.

(Values after article PMC4963535, “Structure-guided development of heterodimer-selective GPCR ligands” (Nature Communications, 2016).)
